Experimental data: PubChem BioAssay AID1053208 (Peter MacCallum Cancer Centre, 2014)

Test: 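Genes whose silencing cuts survival of bone tumour cells only with doxorubicin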 (primary screen)
Cells: mouse osteosarcoma cells, early-passage culture from an engineered mouse model of fibroblastic bone tumour
Knock-down reagent: siRNA pool against mouse genes, 40 nM
Timing: about 120 h (48 h before drug, then 72 h with drug)
Treatment: doxorubicin 100 nM for 72 h, roughly 30-40% inhibitory dose
Detection: 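Viability read as ATP luminescence after 72 h of 100 nM doxorubicin or none, duplicate wells averaged, scaled to non-targeting siRNA, then expressed as robust z-scores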
Reading the numbers: viability z-score with doxorubicin: higher = more viable cells under doxorubicin; viability z-score without drug: higher = more viable cells with knock-down alone
Active means: 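Called active if knock-down leaves viability unchanged without drug (z within -2 to 2) but lowers it with doxorubicin (z at or under -2)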
Shown is a random part of about 17,000 deposited reagents. 788 of all reagents (4.7%) were called active. 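Calls rest on z-score classes alone; an extra cut-off of viability at most 70% of control was not applied to them.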 Unmarked entries are inactive. A reagent listed more than once was tested more than once; the source does not tell the runs apart. Further read-outs or replicates are left out here.

target	combined z-score class	viability z-score with doxorubicin	viability z-score without drug
Trib2 (tribbles pseudokinase 2)	no change with or without drug	0.22	0.51
Nod2 (nucleotide-binding oligomerization domain containing 2)	no change with or without drug	0	1.69
Fbxl15 (F-box and leucine-rich repeat protein 15)	no change with or without drug	0.67	0.17
Rnf113a2 (ring finger protein 113A2)	no change with or without drug	-0.67	1.18
Rbm7 (RNA binding motif protein 7)	no change with or without drug	0	0.51
Fancg (Fanconi anemia, complementation group G)	no change with or without drug	0.45	1.35
Sval2 (seminal vesicle antigen-like 2)	no change with or without drug	1.8	0.67
Immp2l	no change with or without drug	1.24	-0.51
Cyp2d22 (cytochrome P450, family 2, subfamily d, polypeptide 22)	no change with or without drug	0.45	1.18
Zfp85os (zinc finger protein 85, opposite strand)	no change with or without drug	0.22	1.85
Ctf1 (cardiotrophin 1)	no change with or without drug	0.22	-1.18
Vmn1r43 (vomeronasal 1 receptor 43)	no change with or without drug	0.9	1.18
Ank2 (ankyrin 2, brain)	no change with or without drug	0.45	-0.84
Rsrc1 (arginine/serine-rich coiled-coil 1)	no change with or without drug	0.56	1.35
Sac3d1 (SAC3 domain containing 1)	high cell count with doxorubicin only	2.59	-0.34
Pkd1	no change with or without drug	0.45	-0.17
Socs4 (suppressor of cytokine signaling 4)	no change with or without drug	-0.45	1.52
Epb41l3 (erythrocyte membrane protein band 4.1 like 3)	no change with or without drug	-0.22	-0.51
Cdca4 (cell division cycle associated 4)	no change with or without drug	0.67	1.52
Eml4 (echinoderm microtubule associated protein like 4)	no change with or without drug	1.35	1.69
Tmc6 (transmembrane channel-like gene family 6)	no change with or without drug	0	0.17
Znrd2 (zinc ribbon domain containing 2)	no change with or without drug	-1.01	-0.84
Grtp1 (GH regulated TBC protein 1)	no change with or without drug	-0.22	-1.18
Msx1 (msh homeobox 1)	no change with or without drug	0.56	-0.84

Reformatted: results already given.
Ank2 (ankyrin 2, brain)
- combined z-score class: no change with or without drug
- viability z-score with doxorubicin: 0.45
- viability z-score without drug: -0.84

Rsrc1 (arginine/serine-rich coiled-coil 1)
- combined z-score class: no change with or without drug
- viability z-score with doxorubicin: 0.56
- viability z-score without drug: 1.35

Sac3d1 (SAC3 domain containing 1)
- combined z-score class: high cell count with doxorubicin only
- viability z-score with doxorubicin: 2.59
- viability z-score without drug: -0.34

Pkd1
- combined z-score class: no change with or without drug
- viability z-score with doxorubicin: 0.45
- viability z-score without drug: -0.17

Socs4 (suppressor of cytokine signaling 4)
- combined z-score class: no change with or without drug
- viability z-score with doxorubicin: -0.45
- viability z-score without drug: 1.52

Epb41l3 (erythrocyte membrane protein band 4.1 like 3)
- combined z-score class: no change with or without drug
- viability z-score with doxorubicin: -0.22
- viability z-score without drug: -0.51

Cdca4 (cell division cycle associated 4)
- combined z-score class: no change with or without drug
- viability z-score with doxorubicin: 0.67
- viability z-score without drug: 1.52

More records follow.
target	combined z-score class	viability z-score with doxorubicin	viability z-score without drug
Trpd52l3 (tumor protein D52-like 3)	low cell count without drug only	-1.24	-2.53
Trpd52l3 (tumor protein D52-like 3)	no change with or without drug	0.11	0.17
Vmn1r26 (vomeronasal 1 receptor 26)	no change with or without drug	0.79	0.34
Fbxo21 (F-box protein 21)	no change with or without drug	-0.11	0.17
Cib3 (calcium and integrin binding family member 3)	no change with or without drug	0.22	-0.84
Apex1 (apurinic/apyrimidinic endonuclease 1)	no change with or without drug	-1.35	0.84
Kcne2	no change with or without drug	0.67	0.84
D630028G08Rik (RIKEN cDNA D630028G08 gene)	low cell count with doxorubicin only (active)	-2.14	1.69
Diras1 (DIRAS family, GTP-binding RAS-like 1)	no change with or without drug	0.79	-0.17
Unc80 (unc-80, NALCN activator)	no change with or without drug	1.35	-0.84
Pheta2 (PH domain containing endocytic trafficking adaptor 2)	no change with or without drug	0	0.17
Zdhhc3 (zinc finger, DHHC domain containing 3)	low cell count with doxorubicin only (active)	-2.36	0.51
Cuedc1 (CUE domain containing 1)	no change with or without drug	-0.9	-0.51
2810021J22Rik (RIKEN cDNA 2810021J22 gene)	no change with or without drug	-0.22	-1.18
Renbp (renin binding protein)	no change with or without drug	0.34	-0.34
Slc25a16	no change with or without drug	0.34	0.17
Sardh (sarcosine dehydrogenase)	no change with or without drug	1.35	1.52
Oxtr (oxytocin receptor)	no change with or without drug	0.34	-0.51
Or2c1 (olfactory receptor family 2 subfamily C member 1)	no change with or without drug	0	-1.01
Sh3pxd2b (SH3 and PX domains 2B)	no change with or without drug	1.12	0.84
Tac4 (tachykinin 4)	no change with or without drug	0.11	0.51
Ttll1 (tubulin tyrosine ligase-like 1)	no change with or without drug	-0.45	0.51
Tie1	no change with or without drug	0.45	0.84
Celf3 (CUGBP, Elav-like family member 3)	no change with or without drug	-1.12	1.18
Spatc1l (spermatogenesis and centriole associated 1 like)	no change with or without drug	-0.56	-0.17
Txn2 (thioredoxin 2)	no change with or without drug	-1.35	0.34
